# Measured values from PubChem BioAssay AID1671190 (National Center for Advancing Translational Sciences (NCATS), 2021).
# The chains behind the UniProt entries cited, without tags or fusion partners. Where a name states a change or a piece, a line headed by the entry shows the natural chain unless it says otherwise.
# UniProt P18054: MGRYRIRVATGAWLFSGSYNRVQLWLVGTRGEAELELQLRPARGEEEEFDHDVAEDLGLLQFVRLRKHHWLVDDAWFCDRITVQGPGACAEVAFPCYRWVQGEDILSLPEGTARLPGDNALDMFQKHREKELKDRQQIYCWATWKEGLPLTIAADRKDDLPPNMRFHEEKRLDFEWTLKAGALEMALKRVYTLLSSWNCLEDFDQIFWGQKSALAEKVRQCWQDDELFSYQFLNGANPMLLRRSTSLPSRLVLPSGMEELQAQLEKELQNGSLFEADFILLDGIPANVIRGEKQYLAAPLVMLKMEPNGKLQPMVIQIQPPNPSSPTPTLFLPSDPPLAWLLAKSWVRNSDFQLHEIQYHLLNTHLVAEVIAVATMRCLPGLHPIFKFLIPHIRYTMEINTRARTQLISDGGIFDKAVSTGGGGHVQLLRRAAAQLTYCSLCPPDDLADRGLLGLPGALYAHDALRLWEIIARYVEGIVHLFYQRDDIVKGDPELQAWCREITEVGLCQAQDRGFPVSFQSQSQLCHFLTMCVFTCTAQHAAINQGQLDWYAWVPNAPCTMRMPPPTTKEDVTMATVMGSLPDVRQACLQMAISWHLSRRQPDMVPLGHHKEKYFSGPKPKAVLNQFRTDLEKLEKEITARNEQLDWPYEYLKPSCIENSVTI
# In all, about 580,000 compounds went through this assay and about 6,100 (1.1%) were called active. The inconclusive results got no clear call from the source; some entries with a clear call stand among them for comparison. The call rests on the fitted dose curve; in most records, active means well fitted inhibition curve with a large enough effect; inconclusive means small, poorly fitted or top-dose-only effect, or another doubt; inactive means no such curve, though single readings can be large or run the other way. A potency beside an inconclusive call is a rough fit, not a confirmed value.
# Target: Polyunsaturated fatty acid lipoxygenase ALOX12 (Homo sapiens) (UniProt P18054)
# Experiment: Primary qHTS assay for inhibitors of human arachidonate 12S-lipoxygenase (ALOX12): Round 2
# Conditions: purified 12hLO, xylenol orange hydroperoxide absorbance
# In short: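 Purified human 12hLO at 150 nM in 25 mM Hepes, 0.01% Triton X-100, pH 7.0, preincubated 15 min at room temperature with compound. Reaction started with 40 uM arachidonic acid, 30 min at room temperature. Hydroperoxide measured by Fe-xylenol orange, 573/405 nm absorbance ratio.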
# [1] = activity change, negative = inhibition: at 108 µM (top of the series) unless noted
# On the % scale 0 is the no-effect control and ±100 the full control effect; potency means the concentration at half of the fitted maximal effect.
compound,measurement,setting,value
CC(=O)Nc1ccc(Nc2ncc([N+](=O)[O-])c(Nc3ccc(NC(C)=O)cc3)n2)cc1,Potency,[1],"inconclusive: 126 µM [inhibitor, single point]"
COc1ccc2c(=O)c3c(=O)n(Cc4ccco4)c(-c4ccccc4)nc3oc2c1,Potency,[1],"inconclusive: 141 µM [inhibitor, partial curve, poor fit]"
Cc1ccc(Cl)cc1NC(=O)CNCC(c1ccccc1)N(C)C (stereo unspecified),Potency,[1],"inconclusive: 35.5 µM [inhibitor, single point]"
Cc1cccc(NC(=O)Cn2c(=O)n(CCCCCC(=O)NCc3ccccc3)c(=O)c3sccc32)c1,Potency,[1],"inconclusive: 158 µM [inhibitor, partial curve, poor fit]"
Cc1cccnc1NC(=O)Cn1nc(-c2ccccc2)oc1=S,Potency,[1],inactive
CC1(C)CS(=O)(=O)N(c2ccc(Cl)c(C(=O)Nc3cccc(C(F)(F)F)c3)c2)C1=O,Potency,[1],inactive
CCOC(=O)N1CCN(c2ccc(NS(=O)(=O)c3cc(F)ccc3F)cc2C(=O)O)CC1,Potency,[1],"inconclusive: 17.8 µM [inhibitor, full curve, poor fit]"
CNc1nc(Oc2cccc(NC(C)=O)c2)c2sccc2n1,Potency,[1],inactive
CCOC(=O)CN1CCN(c2nc3c(c(=O)[nH]c(=O)n3C)n2CC)CC1,Potency,[1],inactive
Cc1sc(NC(=O)c2ccccc2)c(C(c2ccc(Cl)cc2)N2CCN(CCO)CC2)c1C (stereo unspecified),Potency,[1],"inconclusive: 44.7 µM [inhibitor, partial curve, poor fit]"
Clc1ccc(-c2cnc(CSc3n[nH]c(-c4ccccc4)n3)o2)cc1,Potency,[1],"inconclusive: 100 µM [inhibitor, single point]"
COc1ccc(NC(=O)Cc2coc3cc(C)c(C)cc23)cc1Cl,Potency,[1],"inconclusive: 6.31 µM [inhibitor, full curve, poor fit]"
COC(=O)CC(N)c1ccc(C)cc1C (stereo unspecified),Potency,[1],"inconclusive: 35.5 µM [inhibitor, partial curve, poor fit]"
c1ccc(CNc2ncnc3ccc(-c4ccoc4)cc23)cc1,Potency,[1],"inconclusive: 7.94 µM [inhibitor, full curve, poor fit]"
COc1ccc(CNCC(=O)Nc2cc(OC)cc(OC)c2)cc1,Potency,[1],"inconclusive: 0.398 µM [inhibitor, full curve, poor fit]"
COc1ccc(C(=O)N/C(=C/c2ccco2)C(=O)N2CCCCCC2)cc1,Potency,[1],"inconclusive: 44.7 µM [inhibitor, partial curve, poor fit]"
COCCNC(=O)C(C)[C@@H]1CC[C@@]2(C)CC[C@H](NC(=O)c3cccc(F)c3)[C@@H](C)[C@@H]2[C@H]1O (stereo partly specified),Potency,[1],inactive
CC(C)(C)c1cc(N)c(O)c(Br)c1,Potency,[1],"inconclusive: 44.7 µM [inhibitor, single point]"
Cc1cc(-c2csc3ncnc(N4CCN(C)CC4)c23)cc(C)c1C,Potency,[1],inactive
c1ccc2c(c1)ccn1c(Cc3ccsc3)c(C3CCCCC3)nc21,Potency,[1],"inconclusive: 50.1 µM [inhibitor, partial curve, poor fit]"
CCOc1ccc(C2C(C(=O)c3ccc(C)o3)=C(O)C(=O)N2c2cc(C)on2)cc1OC (stereo unspecified),Potency,[1],active: 25.1 µM
C=C(C)COc1ccc(-c2nc(N)ncc2Oc2ccccc2OC)c(O)c1,Potency,[1],"inconclusive: 112 µM [inhibitor, partial curve, poor fit]"
Cc1ccc(NC(=O)C2CCCN(C(=O)c3ccc(Cl)cc3)C2)cc1C (stereo unspecified),"activity change, negative = inhibition",[1],inconclusive: -30.7% [inhibitor]
same,"activity change, negative = inhibition",at 108 µM (top of the series),inactive: -11.7%
O=C(N/N=C/c1ccco1)c1cc([N+](=O)[O-])cc([N+](=O)[O-])c1,"activity change, negative = inhibition",[1],inconclusive: -30.8% [inhibitor]
CN(C)N=Nc1ccc(-c2cn(Cc3ccccc3)cn2)cc1,Potency,[1],"inconclusive: 35.5 µM [inhibitor, partial curve, poor fit]"
Cc1ccc(C)c(N2CCN(S(=O)(=O)c3c(C(=O)N4CCC(C)CC4)c(C)n(C)c3C)CC2)c1,Potency,[1],"inconclusive: 100 µM [inhibitor, partial curve, poor fit]"
C=Cc1ccc(CC2(C)C(=O)Nc3ccc(-c4cccnc4)cc32)cc1 (stereo unspecified),Potency,[1],"inconclusive: 79.4 µM [inhibitor, partial curve, poor fit]"
O=C(COc1ccccc1)NCC(c1ccc(Cl)cc1)N1CCCCC1 (stereo unspecified),Potency,[1],"inconclusive: 141 µM [inhibitor, partial curve, poor fit]"
c1ccc(-c2cccc(N3CCC4(CCNCC4)CC3)c2)cc1,Potency,[1],"inconclusive: 11.2 µM [inhibitor, partial curve, poor fit]"
O=C(CCNS(=O)(=O)c1cccs1)NCc1ccco1,Potency,[1],"inconclusive: 5.62 µM [inhibitor, full curve, poor fit]"
Cc1cccc(OCCc2c(C)[nH]c(=S)[nH]c2=O)c1,Potency,[1],"inconclusive: 56.2 µM [inhibitor, partial curve, poor fit]"
Cc1cc2nc(/C(C#N)=C/c3ccc4c(c3)OCO4)[nH]c2cc1C,Potency,[1],"inconclusive: 44.7 µM [inhibitor, partial curve, poor fit]"
Cc1ccc(-c2nnn(CC(=O)NCC3COCCO3)n2)o1 (stereo unspecified),Potency,[1],inactive
CC(=O)CC1c2cc(F)ccc2C=C(c2ccsc2)N1c1ccc(-c2ccc(C(N)=O)cc2)cc1 (stereo unspecified),Potency,[1],"inconclusive: 50.1 µM [inhibitor, partial curve, poor fit]"
COc1cc(-c2c(NC(=O)c3ccc(F)cc3)oc3ccccc3c2=O)cc(OC)c1OC,Potency,[1],"inconclusive: 112 µM [inhibitor, single point]"
O=C(Cn1nc(-c2ccco2)ccc1=O)Nc1cc(C(F)(F)F)ccc1Cl,Potency,[1],"inconclusive: 44.7 µM [inhibitor, partial curve, poor fit]"
CCn1c(C(=O)O)c(CC(=O)Nc2cccc(C(F)(F)F)c2)c2ccccc21,Potency,[1],"inconclusive: 112 µM [inhibitor, single point]"
Cc1noc(C)c1C(=O)N1CCC1(C)C(=O)NS(=O)(=O)c1ccccc1Cl (stereo unspecified),Potency,[1],"inconclusive: 35.5 µM [inhibitor, single point]"
CSc1cccc(NC(=S)N2CCC(N(C)C3CCCCC3)CC2)c1,Potency,[1],inactive
CCS(=O)(=O)c1cccc(C(=O)Nc2ccc(-c3nc4ccccc4s3)c(O)c2)c1,Potency,[1],"inconclusive: 112 µM [inhibitor, partial curve, poor fit]"
COc1cc2c(cc1OC)CN(c1nc(CN3CCOCC3)nc3sc4c(c13)CCCC4)CC2,Potency,[1],inactive
CCn1cc(C(=O)N2CCC(CNC(C)=O)CC2)c2ccccc21,Potency,[1],inactive
O=C(NC(=S)Nc1c(Cl)ccc2nsnc12)c1ccco1,Potency,[1],"inconclusive: 50.1 µM [inhibitor, partial curve, poor fit]"
CC/C(=N\NC(=S)Nc1cc(C)ccc1C)c1ccc(OC(F)F)cc1,Potency,[1],active: 31.6 µM
COC(=O)C1=C(C(=O)c2ccc(C)cc2)C(c2ccc(C(=O)OC)cc2)n2nnnc2N1 (stereo unspecified),Potency,[1],"inconclusive: 11.2 µM [inhibitor, full curve, poor fit]"
O=[N+]([O-])c1ccc(/C=N/Nc2cccc(Cl)c2)cc1,Potency,[1],active: 3.16 µM
Cc1ccc(-c2cc(C(=O)Nc3ccc(C#N)cc3)c3ccccc3n2)o1,Potency,[1],active: 12.6 µM
CN(CC(=O)Nc1ccc(F)cc1)Cc1nc2ccccc2c(=O)[nH]1,Potency,[1],inactive
CN(C)c1nc(N(C)C)nc(N(C)C)n1,Potency,[1],"inconclusive: 10.9 µM [inhibitor, single point]"
COC(=O)C1=C(C)N(C)C(=NCc2cccc(C(F)(F)F)c2)NC1c1cccc(Cl)c1 (stereo unspecified),Potency,[1],"inconclusive: 39.8 µM [inhibitor, partial curve]"
COc1ccccc1-c1cncnc1NCc1cccs1,Potency,[1],"inconclusive: 6.31 µM [inhibitor, full curve, poor fit]"
COc1cc(N2CCC(C(N)=O)CC2)ccc1Nc1nc(N)c(Cl)c(Nc2ccccc2S(=O)(=O)C(C)C)n1,"activity change, negative = inhibition",[1],inconclusive: -30.1% [inhibitor] [at 57.4 µM]
Cc1ncc2c(c1CNC(=O)CC(C)c1ccccc1)CCNC2 (stereo unspecified),Potency,[1],"inconclusive: 11.2 µM [inhibitor, full curve]"
Nc1ccc(Cl)cc1/C(=N/Nc1ccccc1)c1ccccc1,Potency,[1],"inconclusive: 8.91 µM [inhibitor, full curve, poor fit]"
CCOC(=O)C1CCN(C(=S)Nc2cccc(C)c2)CC1,Potency,[1],inactive
O=C(CSc1cn[nH]n1)Nc1nc2ccccc2s1,Potency,[1],inactive
CC(C)=CCC/C(C)=C/COC=O,Potency,[1],inactive
COc1ccc(Nc2nc(N)c(C(=O)c3ccc(C)cc3C)s2)cc1Cl,Potency,[1],"inconclusive: 44.7 µM [inhibitor, partial curve, poor fit]"
COc1ccc(C(=O)/C(C#N)=C\c2cc(Br)c(O)c(OC)c2)cc1,Potency,[1],"inconclusive: 5.62 µM [inhibitor, full curve, poor fit]"
COCCN1C(=O)[C@@H]2C[C@@H](CN2Cc2ccc(C(F)(F)F)cc2)Oc2ccccc21,Potency,[1],inactive
Clc1cccc(OCCN2CCOCC2)c1,Potency,[1],inactive
COC(=O)C1=C(Nc2ccc(C)cc2)C=C(C)C(C(=O)OC)C1c1cccc(OC)c1 (stereo unspecified),Potency,[1],"inconclusive: 44.7 µM [inhibitor, partial curve, poor fit]"
CC1CCN(S(=O)(=O)c2ccc(C(=O)N3CCCC(C(F)(F)F)C3)cc2)CC1 (stereo unspecified),Potency,[1],inactive
CCN1C(=O)[C@H]2[C@@H](c3ccc(C)cc3)N[C@]3(CCCN(Cc4ccc(C(F)(F)F)cc4)C3=O)[C@H]2C1=O,Potency,[1],"inconclusive: 11.2 µM [inhibitor, partial curve, poor fit]"
COc1cccc(C(=O)CN2C3=NCCCN3c3ccccc32)c1,Potency,[1],inactive

# Looked up one by one from above, 4 records:
compound,measurement,setting,value
c1ccc(-c2cccc(N3CCC4(CCNCC4)CC3)c2)cc1,Potency,[1],"inconclusive: 11.2 µM [inhibitor, partial curve, poor fit]"
COc1ccc(C(=O)/C(C#N)=C\c2cc(Br)c(O)c(OC)c2)cc1,Potency,[1],"inconclusive: 5.62 µM [inhibitor, full curve, poor fit]"
Clc1ccc(-c2cnc(CSc3n[nH]c(-c4ccccc4)n3)o2)cc1,Potency,[1],"inconclusive: 100 µM [inhibitor, single point]"
CC(C)(C)c1cc(N)c(O)c(Br)c1,Potency,[1],"inconclusive: 44.7 µM [inhibitor, single point]"
